# Experimental data from patent publication US12421282B2 (priority 2021, dated 2025).
# HELM strings list residues between dots; [ac] is acetyl, [am] amide, other brackets name non-standard units.
# Assay: general procedure: Fmoc solid-phase peptide synthesis; Rink resin; diimide, HATU, or HBTU
# Details: whole synthesis, RP-HPLC
substance,measurement,value
"PEPTIDE1{Y.[Aib].E.G.T.F.T.S.D.Y.S.I.[Aib].L.D.K.I.A.Q.Q.A.F.V.Q.W.L.I.A.G.G.P.S.S.G.A.P.P.P.S.[am]}|PEPTIDE2{[Phn19].[gGlu].[PEG2].[PEG2]}$PEPTIDE1,PEPTIDE2,16:R3-4:R2$$$V2.0",final HPLC purity,95.0%
